# From the supplement of paper PMC8728848
# The list shows a part of the results.
# Tests used:
# Experiment in all cases: glycan array binding signal (z-score within array); higher = stronger binding
# Details in all cases: glycan notation: IUPAC condensed, linker removed
# [1] = molecular target: Fuc(a1-2)Gal
# Summary of the method: (§1)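 Glycan array data came from 3228 arrays in the Consortium for Functional Glycomics database, and only arrays with an available protein sequence were kept. Glycan names were put into IUPAC-condensed notation, and columns mapping to the same glycan were averaged. The binding signal is a within-array Z-score, averaged across arrays of one protein sequence run at different concentrations or buffers and across linkers. A negative Z-score can be read as non-binding.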
# [2] = molecular target: Fuc(a1-2)Gal(b1-3)GalNAc
# Summary of the method: as §1
# [3] = molecular target: Fuc(a1-2)Gal(b1-3)GalNAc(a1-3)[Fuc(a1-2)]Gal(b1-4)Glc
# Summary of the method: as §1
# [4] = molecular target: Fuc(a1-2)Gal(b1-3)GalNAc(a1-3)[Fuc(a1-2)]Gal(b1-4)GlcNAc
# Summary of the method: as §1
# [5] = molecular target: Fuc(a1-2)Gal(b1-3)GalNAc(b1-3)Gal
# Summary of the method: as §1
# [6] = molecular target: Fuc(a1-2)Gal(b1-3)GalNAc(b1-3)Gal(a1-4)Gal(b1-4)Glc
# Summary of the method: as §1
# [7] = molecular target: Fuc(a1-2)Gal(b1-3)GalNAc(b1-4)[Neu5Ac(a2-3)]Gal(b1-4)Glc
# Summary of the method: as §1
# [8] = molecular target: Fuc(a1-2)Gal(b1-3)GlcNAc
# Summary of the method: as §1
# [9] = molecular target: Fuc(a1-2)Gal(b1-3)GlcNAc(b1-2)Man(a1-3)[Fuc(a1-2)Gal(b1-3)GlcNAc(b1-2)Man(a1-6)]Man(b1-4)GlcNAc(b1-4)GlcNAc
# Summary of the method: as §1
# [10] = molecular target: Fuc(a1-2)Gal(b1-3)GlcNAc(b1-2)Man(a1-3)[Fuc(a1-2)Gal(b1-3)GlcNAc(b1-2)Man(a1-6)]Man(b1-4)GlcNAc(b1-4)[Fuc(a1-6)]GlcNAc
# Summary of the method: as §1
# [11] = molecular target: Fuc(a1-2)Gal(b1-3)GlcNAc(b1-3)Gal(b1-4)Glc
# Summary of the method: as §1
# [12] = molecular target: Fuc(a1-2)Gal(b1-3)GlcNAc(b1-3)GalNAc
# Summary of the method: as §1
# [13] = molecular target: Fuc(a1-2)Gal(b1-3)GlcNAc(b1-3)[Fuc(a1-2)Gal(b1-3)GlcNAc(b1-6)]GalNAc
# Summary of the method: as §1
# [14] = molecular target: Fuc(a1-2)Gal(b1-3)GlcNAc(b1-3)[Gal(b1-4)GlcNAc(b1-6)]Gal(b1-4)Glc
# Summary of the method: as §1
# [15] = molecular target: Fuc(a1-2)Gal(b1-3)GlcNAc(b1-3)[Neu5Ac(a2-6)Gal(b1-4)GlcNAc(b1-6)]Gal(b1-4)Glc
# Summary of the method: as §1
# [16] = molecular target: Fuc(a1-2)Gal(b1-3)GlcNAc6S
# Summary of the method: as §1
# [17] = molecular target: Fuc(a1-2)Gal(b1-3)[Fuc(a1-4)]GlcNAc
# Summary of the method: as §1
# [18] = molecular target: Fuc(a1-2)Gal(b1-3)[Fuc(a1-4)]GlcNAc(b1-2)Man(a1-3)[Fuc(a1-2)Gal(b1-3)[Fuc(a1-4)]GlcNAc(b1-2)Man(a1-3)]Man(b1-4)GlcNAc(b1-4)GlcNAc
# Summary of the method: as §1
# [19] = molecular target: Fuc(a1-2)Gal(b1-3)[Fuc(a1-4)]GlcNAc(b1-2)Man(a1-3)[Fuc(a1-2)Gal(b1-3)[Fuc(a1-4)]GlcNAc(b1-2)Man(a1-6)]Man(b1-4)GlcNAc(b1-4)[Fuc(a1-6)]GlcNAc(b1-4)[Fuc(a1-6)]GlcNAc
# Summary of the method: as §1
# [20] = molecular target: Fuc(a1-2)Gal(b1-3)[Fuc(a1-4)]GlcNAc(b1-3)[Fuc(a1-3)[Gal(b1-4)]GlcNAc(b1-6)]Gal(b1-4)Glc
# Summary of the method: as §1
# [21] = molecular target: Fuc(a1-2)Gal(b1-3)[Fuc(a1-4)]GlcNAc(b1-3)[Gal(b1-4)GlcNAc(b1-6)]Gal(b1-4)Glc
# Summary of the method: as §1
# [22] = molecular target: Fuc(a1-2)Gal(b1-4)Fuc(a1-3)]GlcNAc(b1-2)Man(a1-3)[Fuc(a1-2)Gal(b1-4)[Fuc(a1-3)]GlcNAc(b1-2)Man(a1-6)]Man(b1-4)GlcNAc(b1-4)GlcNAc
# Summary of the method: as §1
# [23] = molecular target: Fuc(a1-2)Gal(b1-4)Glc
# Summary of the method: as §1
# [24] = molecular target: Fuc(a1-2)Gal(b1-4)Glc6S
# Summary of the method: as §1
# [25] = molecular target: Fuc(a1-2)Gal(b1-4)GlcNAc
# Summary of the method: as §1
# [26] = molecular target: Fuc(a1-2)Gal(b1-4)GlcNAc(b1-2)Man
# Summary of the method: as §1
# [27] = molecular target: Fuc(a1-2)Gal(b1-4)GlcNAc(b1-2)Man(a1-3)[Fuc(a1-2)Gal(b1-4)GlcNAc(b1-2)Man(a1-6)]Man(b1-4)GlcNAc(b1-4)GlcNAc
# Summary of the method: as §1
# [28] = molecular target: Fuc(a1-2)Gal(b1-4)GlcNAc(b1-2)Man(a1-3)[Fuc(a1-2)Gal(b1-4)GlcNAc(b1-2)Man(a1-6)]Man(b1-4)GlcNAc(b1-4)[Fuc(a1-6)]GlcNAc
# Summary of the method: as §1
# [29] = molecular target: Fuc(a1-2)Gal(b1-4)GlcNAc(b1-2)[Fuc(a1-2)Gal(b1-4)GlcNAc(b1-4)]Man(a1-3)[Fuc(a1-2)Gal(b1-4)GlcNAc(b1-2)Man(a1-6)]Man(b1-4)GlcNAc(b1-4)GlcNAc
# Summary of the method: as §1
# [30] = molecular target: Fuc(a1-2)Gal(b1-4)GlcNAc(b1-3)Gal(b1-4)GlcNAc
# Summary of the method: as §1
binder,measurement,setting,value
"AT1G80310(18) (Arabidopsis thaliana), Q0WP36 (protein) METTTTPLLPGDRSRCGWLRRRLRLKNPLSSELSGAVGDLGTFIPIVLTLTLVSNLDLSTTLIFTGFYNIATGLLFDIPMPVQPMKSIAAVAVSESPHLTPSQIAAAGASTAATLLLLGATGAMSFLYNIIPLPVVRGVQLSQGLQFAFTAIKYVRFNYDTATLKPSSSPRIWLGLDGLILALAALLFIILSTGSGNDREAEDGDLAETSSNESQSRRRRLRLLSSIPSALIVFALGLVLCFIRDPSIFKDLKFGPSKFHILRISWDDWKIGFLRAAIPQIPLSVLNSVIAVCKLSNDLFDKELSATTVSISVGVMNLIGCWFGAMPVCHGAGGLAGQYRFGARSGLSVIFLGIGKLIVGLVFGNSFVRILSQFPIGILGVLLLFAGIELAMASKDMNSKEDSFIMLVCAAVSMTGSSAALGFGCGVVLYLLLKLRTLDCSSVTLFSRSSDESQVDSEAAPRDV",glycan array binding signal (z-score),[1],1.66
same,glycan array binding signal (z-score),[2],-0.601
same,glycan array binding signal (z-score),[3],1.38
same,glycan array binding signal (z-score),[4],-0.505
same,glycan array binding signal (z-score),[5],0.503
same,glycan array binding signal (z-score),[6],-0.413
same,glycan array binding signal (z-score),[7],-0.845
same,glycan array binding signal (z-score),[8],0.429
same,glycan array binding signal (z-score),[9],-1.03
same,glycan array binding signal (z-score),[10],0.177
same,glycan array binding signal (z-score),[11],-0.053
same,glycan array binding signal (z-score),[12],-0.358
same,glycan array binding signal (z-score),[13],-0.893
same,glycan array binding signal (z-score),[14],2.42
same,glycan array binding signal (z-score),[15],-0.892
same,glycan array binding signal (z-score),[16],-0.258
same,glycan array binding signal (z-score),[17],-0.61
same,glycan array binding signal (z-score),[18],-0.097
same,glycan array binding signal (z-score),[19],1.67
same,glycan array binding signal (z-score),[20],0.22
same,glycan array binding signal (z-score),[21],-0.71
same,glycan array binding signal (z-score),[22],4.04
same,glycan array binding signal (z-score),[23],0.358
same,glycan array binding signal (z-score),[24],-0.979
same,glycan array binding signal (z-score),[25],-0.288
same,glycan array binding signal (z-score),[26],1.59
same,glycan array binding signal (z-score),[27],3.83
same,glycan array binding signal (z-score),[28],2.34
same,glycan array binding signal (z-score),[29],1.65
same,glycan array binding signal (z-score),[30],0.099

# Laid out differently: results already given
binder	measurement	setting	value
AT1G80310(18) (Arabidopsis thaliana), Q0WP36 (protein) METTTTPLLPGDRSRCGWLRRRLRLKNPLSSELSGAVGDLGTFIPIVLTLTLVSNLDLSTTLIFTGFYNIATGLLFDIPMPVQPMKSIAAVAVSESPHLTPSQIAAAGASTAATLLLLGATGAMSFLYNIIPLPVVRGVQLSQGLQFAFTAIKYVRFNYDTATLKPSSSPRIWLGLDGLILALAALLFIILSTGSGNDREAEDGDLAETSSNESQSRRRRLRLLSSIPSALIVFALGLVLCFIRDPSIFKDLKFGPSKFHILRISWDDWKIGFLRAAIPQIPLSVLNSVIAVCKLSNDLFDKELSATTVSISVGVMNLIGCWFGAMPVCHGAGGLAGQYRFGARSGLSVIFLGIGKLIVGLVFGNSFVRILSQFPIGILGVLLLFAGIELAMASKDMNSKEDSFIMLVCAAVSMTGSSAALGFGCGVVLYLLLKLRTLDCSSVTLFSRSSDESQVDSEAAPRDV	glycan array binding signal (z-score)	[12]	-0.358
same	glycan array binding signal (z-score)	[13]	-0.893
